The results in this text go back to paper PMC6983718.

Results are given in words; binding and its absence hold for the method and conditions named. A result given as binding can be weak or reduced; the word gives no strength. Sequences can lack the tags named with a protein.

For this assay, the target named is microtubules (taxol-polymerised bovine tubulin) (bovine). Put plainly: co-sedimentation; MBP or MBP–Mora incubated with 2.25 mg/ml bovine tubulin and 1 mM GTP in general tubulin buffer at 37°C, then 100 µM taxol; spun through 40% glycerol cushion at 100,000 g; supernatant and pellet blotted with anti-MBP and anti-α-Tubulin; control at 4°C without taxol; both purified.

B1: MBP–Mora (protein, UniProt Q9VCC0 1-354)
chain: MEQCYNRGCGQLFDPQTNNDESCRHHPGEPFFHDAYKGWSCCNKKSVDFTEFLNIKGCTLAKHSNVKPPEPEKPVKDESDKDEVIEVRAPIREALPRPPIDSPLTVIQPTVAPALKDMVFAVKTPAAQKSSDAIEVGTTCKNNGCTYSFTGNSSDFGECTYHPGVPIFHEGMKFWSCCQKRTSDFSQFMAQKGCTYGEHKWVKENDDKKVVQCRYDWHQTATNVVMAIYAKKYDYSQSVIELNPIRLHVNLVFPEQDNARFDLDLELRGIVNVSNASAHMYGTKVEIKLPKLEPGSWSNLNFPNKKLPVVKKSQVEEKKKQEESDEEFFDLDDIKAETSFRLSEMSMQSPNNLD
For the molecule B1, the binding result is given as “binds”.
